The values below come from patent US20110104152A1.

The chains behind the UniProt entries cited, without tags or fusion partners. Where a name states a change or a piece, a line headed by the entry shows the natural chain unless it says otherwise.
UniProt O95750: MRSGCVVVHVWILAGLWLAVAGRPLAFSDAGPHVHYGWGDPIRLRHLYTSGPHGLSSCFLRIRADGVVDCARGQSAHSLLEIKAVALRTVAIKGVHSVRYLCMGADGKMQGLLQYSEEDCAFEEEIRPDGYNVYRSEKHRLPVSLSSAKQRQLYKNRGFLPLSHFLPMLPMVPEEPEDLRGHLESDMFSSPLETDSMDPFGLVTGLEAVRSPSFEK

The target of experiment [1] is T1, FGFR4-Fc (recombinant polypeptide comprising a human FGFR4 extracellular domain fused to a human IgG1 Fc fragment) (human) (UniProt P22455).
T1 sequence (looked up): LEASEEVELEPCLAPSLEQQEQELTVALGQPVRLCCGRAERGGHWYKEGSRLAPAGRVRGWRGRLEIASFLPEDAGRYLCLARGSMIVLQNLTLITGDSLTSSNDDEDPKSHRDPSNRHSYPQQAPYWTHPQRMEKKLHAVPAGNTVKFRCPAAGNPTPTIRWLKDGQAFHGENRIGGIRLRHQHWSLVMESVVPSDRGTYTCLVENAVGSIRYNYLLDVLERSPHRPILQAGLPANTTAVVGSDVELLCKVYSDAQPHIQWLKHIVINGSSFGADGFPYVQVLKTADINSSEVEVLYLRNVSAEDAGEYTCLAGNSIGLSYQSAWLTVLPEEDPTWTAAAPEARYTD
The experiment in a line: solid phase binding assay on FGFR4 fused to Fc fragment, 2 µg/mL heparin (FIG. 18E).

In experiment [2] the target is T1, FGFR4-Fc (recombinant polypeptide comprising a human FGFR4 extracellular domain fused to a human IgG1 Fc fragment) (human). Description: ELISA, FGFR4-Fc captured by anti-human IgG-Fc antibody, 2 µg/mL heparin, detection with biotinylated anti-FGF19 polyclonal antibody.

No constants are given. Whether binding was seen depends on the method and setting. Some results given as binding are weak or reduced against the parent protein; the word gives no strength. Tags and fused reporters may be left off the sequences shown.

Consider “native human FGF19-Flag polypeptide (from UniProt O95750 25-216) (ligand)”, for which the binding entry in experiment [1] and in experiment [2] was “binds” in each case.
